The conditions of the series: human, microsomes, 1 h.

Each structure is given as a SMILES string.

The results in this text go back to article PMC2772170 (Journal of medicinal chemistry, 2009).

As for `N#Cc1c(-c2csc(-c3no[n+]([O-])c3C#N)c2)no[n+]1[O-]` [Analogue 35], the “Microsomal stability, NADPH (+)” value is recorded as 12/52 % remaining and the “Microsomal stability, NADPH (−)” value is listed as 12/52 % remaining.
